Laboratory results published in the supplement of paper PMC10849652.
The list shows a part of the results.

Sequences of proteins named here, by UniProt entry; tags and fusion partners are left off. A change or cut given only in a name is not applied to a line headed by its entry.
UniProt Q5MIZ7: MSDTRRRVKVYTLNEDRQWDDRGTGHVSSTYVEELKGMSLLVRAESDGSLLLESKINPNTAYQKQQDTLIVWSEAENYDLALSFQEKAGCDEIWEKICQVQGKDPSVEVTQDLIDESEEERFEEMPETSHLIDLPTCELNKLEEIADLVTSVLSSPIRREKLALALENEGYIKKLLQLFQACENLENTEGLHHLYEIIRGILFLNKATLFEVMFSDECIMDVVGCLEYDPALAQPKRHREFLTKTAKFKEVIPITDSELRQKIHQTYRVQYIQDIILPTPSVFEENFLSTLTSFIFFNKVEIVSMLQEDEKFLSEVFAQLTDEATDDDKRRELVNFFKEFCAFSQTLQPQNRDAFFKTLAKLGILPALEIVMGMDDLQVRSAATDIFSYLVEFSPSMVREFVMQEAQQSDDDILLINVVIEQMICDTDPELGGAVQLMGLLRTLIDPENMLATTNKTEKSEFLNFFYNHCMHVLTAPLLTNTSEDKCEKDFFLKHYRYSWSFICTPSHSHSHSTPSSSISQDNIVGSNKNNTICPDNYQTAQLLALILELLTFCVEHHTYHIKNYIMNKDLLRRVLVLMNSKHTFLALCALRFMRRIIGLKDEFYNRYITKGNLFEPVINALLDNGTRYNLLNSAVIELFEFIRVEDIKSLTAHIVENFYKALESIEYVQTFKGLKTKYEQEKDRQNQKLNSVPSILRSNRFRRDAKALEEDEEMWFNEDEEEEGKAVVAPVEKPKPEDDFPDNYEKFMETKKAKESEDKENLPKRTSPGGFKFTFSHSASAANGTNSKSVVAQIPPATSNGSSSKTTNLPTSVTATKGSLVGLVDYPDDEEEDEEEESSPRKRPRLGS
UniProt Q6ZMI0: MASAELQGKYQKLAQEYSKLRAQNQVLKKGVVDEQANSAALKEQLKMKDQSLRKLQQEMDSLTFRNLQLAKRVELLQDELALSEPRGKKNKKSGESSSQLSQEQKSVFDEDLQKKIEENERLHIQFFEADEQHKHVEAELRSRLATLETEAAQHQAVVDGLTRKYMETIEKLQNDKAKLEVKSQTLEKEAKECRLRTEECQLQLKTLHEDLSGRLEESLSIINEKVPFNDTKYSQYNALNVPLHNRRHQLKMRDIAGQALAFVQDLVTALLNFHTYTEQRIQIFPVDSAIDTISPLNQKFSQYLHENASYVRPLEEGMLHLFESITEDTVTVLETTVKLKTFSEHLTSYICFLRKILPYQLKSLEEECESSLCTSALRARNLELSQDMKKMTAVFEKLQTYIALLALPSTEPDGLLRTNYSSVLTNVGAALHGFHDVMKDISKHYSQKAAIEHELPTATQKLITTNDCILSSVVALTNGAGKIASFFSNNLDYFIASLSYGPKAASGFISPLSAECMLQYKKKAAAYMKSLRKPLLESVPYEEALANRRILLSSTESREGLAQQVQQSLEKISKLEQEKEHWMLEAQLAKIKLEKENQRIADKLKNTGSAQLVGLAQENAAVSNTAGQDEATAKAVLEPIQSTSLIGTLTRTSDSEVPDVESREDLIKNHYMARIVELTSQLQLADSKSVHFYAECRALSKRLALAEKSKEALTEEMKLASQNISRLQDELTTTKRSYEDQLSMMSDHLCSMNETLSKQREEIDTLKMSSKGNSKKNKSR
UniProt O15355: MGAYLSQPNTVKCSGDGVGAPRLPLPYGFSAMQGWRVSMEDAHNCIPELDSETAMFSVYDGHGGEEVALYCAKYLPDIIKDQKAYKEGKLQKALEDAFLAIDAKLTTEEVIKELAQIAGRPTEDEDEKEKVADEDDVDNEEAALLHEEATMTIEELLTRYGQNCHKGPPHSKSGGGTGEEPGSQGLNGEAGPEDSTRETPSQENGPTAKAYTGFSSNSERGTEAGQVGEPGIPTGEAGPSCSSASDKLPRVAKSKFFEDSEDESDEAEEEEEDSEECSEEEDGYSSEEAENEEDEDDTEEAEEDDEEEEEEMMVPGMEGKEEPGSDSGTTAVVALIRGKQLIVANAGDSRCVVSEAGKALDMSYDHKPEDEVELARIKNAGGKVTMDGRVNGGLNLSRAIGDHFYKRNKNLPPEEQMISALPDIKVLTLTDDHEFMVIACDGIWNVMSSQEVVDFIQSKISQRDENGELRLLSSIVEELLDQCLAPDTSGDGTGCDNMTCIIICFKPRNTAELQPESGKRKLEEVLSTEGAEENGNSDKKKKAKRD
UniProt Q96A00: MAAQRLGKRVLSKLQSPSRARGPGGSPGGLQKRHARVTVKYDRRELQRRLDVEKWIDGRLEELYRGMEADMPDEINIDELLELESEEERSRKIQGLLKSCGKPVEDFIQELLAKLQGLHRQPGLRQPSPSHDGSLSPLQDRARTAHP
UniProt Q9UMS4: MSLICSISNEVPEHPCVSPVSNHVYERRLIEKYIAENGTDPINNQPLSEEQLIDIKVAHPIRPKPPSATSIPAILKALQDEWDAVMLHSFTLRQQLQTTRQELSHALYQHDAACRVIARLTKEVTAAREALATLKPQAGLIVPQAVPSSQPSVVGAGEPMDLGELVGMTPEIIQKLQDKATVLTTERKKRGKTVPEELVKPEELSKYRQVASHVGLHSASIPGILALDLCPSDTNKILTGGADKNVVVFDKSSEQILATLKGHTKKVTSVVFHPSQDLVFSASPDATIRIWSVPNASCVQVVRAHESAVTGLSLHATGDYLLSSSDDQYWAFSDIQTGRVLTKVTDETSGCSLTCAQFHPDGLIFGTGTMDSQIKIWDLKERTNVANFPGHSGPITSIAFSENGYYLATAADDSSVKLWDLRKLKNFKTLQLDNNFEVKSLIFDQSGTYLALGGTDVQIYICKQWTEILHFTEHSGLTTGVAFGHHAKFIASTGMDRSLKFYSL
UniProt Q9UMR5: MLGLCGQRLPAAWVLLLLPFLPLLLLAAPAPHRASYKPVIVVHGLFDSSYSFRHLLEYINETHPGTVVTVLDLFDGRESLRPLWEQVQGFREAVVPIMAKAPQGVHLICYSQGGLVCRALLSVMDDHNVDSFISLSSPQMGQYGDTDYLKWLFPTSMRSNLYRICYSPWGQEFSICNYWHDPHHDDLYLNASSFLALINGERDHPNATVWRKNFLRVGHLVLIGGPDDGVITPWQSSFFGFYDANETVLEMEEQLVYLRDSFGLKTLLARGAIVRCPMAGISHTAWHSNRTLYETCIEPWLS
UniProt P30041: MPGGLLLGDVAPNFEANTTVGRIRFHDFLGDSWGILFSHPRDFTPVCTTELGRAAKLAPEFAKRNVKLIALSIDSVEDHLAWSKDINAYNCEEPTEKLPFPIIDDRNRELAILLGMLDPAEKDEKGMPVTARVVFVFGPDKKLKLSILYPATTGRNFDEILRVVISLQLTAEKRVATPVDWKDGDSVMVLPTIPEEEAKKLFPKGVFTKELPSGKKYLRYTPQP
UniProt P36873, whole entry, looked up: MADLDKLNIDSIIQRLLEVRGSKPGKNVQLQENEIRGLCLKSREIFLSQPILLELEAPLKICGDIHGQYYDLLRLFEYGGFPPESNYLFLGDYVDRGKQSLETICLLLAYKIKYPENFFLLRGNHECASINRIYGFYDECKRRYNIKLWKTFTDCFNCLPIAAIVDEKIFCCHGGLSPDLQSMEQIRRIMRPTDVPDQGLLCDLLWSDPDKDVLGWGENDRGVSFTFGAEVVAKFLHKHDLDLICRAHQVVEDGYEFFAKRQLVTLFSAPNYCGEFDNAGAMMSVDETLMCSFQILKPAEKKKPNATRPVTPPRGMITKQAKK
UniProt O14974: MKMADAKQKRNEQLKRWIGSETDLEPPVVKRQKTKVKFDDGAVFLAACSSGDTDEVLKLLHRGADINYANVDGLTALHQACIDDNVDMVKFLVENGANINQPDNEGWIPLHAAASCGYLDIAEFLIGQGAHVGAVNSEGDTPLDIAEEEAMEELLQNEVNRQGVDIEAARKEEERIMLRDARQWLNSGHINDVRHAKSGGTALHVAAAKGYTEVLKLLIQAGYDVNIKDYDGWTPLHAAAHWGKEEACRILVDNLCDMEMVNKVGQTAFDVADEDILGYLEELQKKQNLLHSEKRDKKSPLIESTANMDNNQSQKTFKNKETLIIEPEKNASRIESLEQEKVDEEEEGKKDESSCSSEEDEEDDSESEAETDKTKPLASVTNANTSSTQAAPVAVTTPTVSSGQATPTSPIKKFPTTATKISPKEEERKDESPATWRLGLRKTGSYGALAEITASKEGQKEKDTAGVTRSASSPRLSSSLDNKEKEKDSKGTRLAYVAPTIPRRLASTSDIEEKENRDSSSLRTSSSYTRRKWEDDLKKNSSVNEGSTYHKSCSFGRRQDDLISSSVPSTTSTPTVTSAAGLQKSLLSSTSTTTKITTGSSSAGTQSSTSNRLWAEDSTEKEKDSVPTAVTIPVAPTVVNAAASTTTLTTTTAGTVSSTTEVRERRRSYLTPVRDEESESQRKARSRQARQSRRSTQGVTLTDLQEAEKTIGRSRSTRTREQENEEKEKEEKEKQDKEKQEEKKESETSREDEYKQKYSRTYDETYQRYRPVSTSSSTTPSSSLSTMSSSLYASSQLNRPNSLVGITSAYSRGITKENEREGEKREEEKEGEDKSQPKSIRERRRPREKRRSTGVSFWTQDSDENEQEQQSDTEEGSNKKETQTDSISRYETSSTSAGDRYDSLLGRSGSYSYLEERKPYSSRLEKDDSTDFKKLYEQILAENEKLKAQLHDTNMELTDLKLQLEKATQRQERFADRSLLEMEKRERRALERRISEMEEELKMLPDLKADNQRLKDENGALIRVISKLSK
UniProt P63151: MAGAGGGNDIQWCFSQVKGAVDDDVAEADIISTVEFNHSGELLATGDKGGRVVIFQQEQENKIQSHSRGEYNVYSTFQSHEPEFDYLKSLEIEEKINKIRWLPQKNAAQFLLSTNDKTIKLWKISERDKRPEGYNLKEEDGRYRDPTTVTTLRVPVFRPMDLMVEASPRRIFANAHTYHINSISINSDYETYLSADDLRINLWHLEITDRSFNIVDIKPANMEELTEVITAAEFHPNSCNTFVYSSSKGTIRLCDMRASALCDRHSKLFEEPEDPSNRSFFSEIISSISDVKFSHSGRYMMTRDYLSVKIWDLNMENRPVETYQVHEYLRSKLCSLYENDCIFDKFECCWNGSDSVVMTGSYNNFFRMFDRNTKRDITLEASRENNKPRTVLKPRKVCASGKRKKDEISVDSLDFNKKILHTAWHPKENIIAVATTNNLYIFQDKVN
UniProt K7ELL7: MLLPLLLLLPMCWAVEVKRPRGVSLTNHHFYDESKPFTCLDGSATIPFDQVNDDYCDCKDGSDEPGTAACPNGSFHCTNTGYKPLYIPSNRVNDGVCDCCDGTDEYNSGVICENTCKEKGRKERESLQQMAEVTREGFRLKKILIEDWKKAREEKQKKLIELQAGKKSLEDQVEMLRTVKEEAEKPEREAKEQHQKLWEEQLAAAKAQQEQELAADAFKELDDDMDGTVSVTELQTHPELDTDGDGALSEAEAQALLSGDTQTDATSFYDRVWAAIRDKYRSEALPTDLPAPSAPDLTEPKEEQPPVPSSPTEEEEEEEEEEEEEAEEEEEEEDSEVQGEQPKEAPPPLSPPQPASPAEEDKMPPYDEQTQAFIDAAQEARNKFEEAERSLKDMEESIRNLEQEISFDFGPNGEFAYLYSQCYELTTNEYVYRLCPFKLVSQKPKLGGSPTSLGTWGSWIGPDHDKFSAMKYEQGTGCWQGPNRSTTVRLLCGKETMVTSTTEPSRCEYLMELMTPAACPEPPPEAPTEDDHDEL
UniProt P41743, whole entry, looked up: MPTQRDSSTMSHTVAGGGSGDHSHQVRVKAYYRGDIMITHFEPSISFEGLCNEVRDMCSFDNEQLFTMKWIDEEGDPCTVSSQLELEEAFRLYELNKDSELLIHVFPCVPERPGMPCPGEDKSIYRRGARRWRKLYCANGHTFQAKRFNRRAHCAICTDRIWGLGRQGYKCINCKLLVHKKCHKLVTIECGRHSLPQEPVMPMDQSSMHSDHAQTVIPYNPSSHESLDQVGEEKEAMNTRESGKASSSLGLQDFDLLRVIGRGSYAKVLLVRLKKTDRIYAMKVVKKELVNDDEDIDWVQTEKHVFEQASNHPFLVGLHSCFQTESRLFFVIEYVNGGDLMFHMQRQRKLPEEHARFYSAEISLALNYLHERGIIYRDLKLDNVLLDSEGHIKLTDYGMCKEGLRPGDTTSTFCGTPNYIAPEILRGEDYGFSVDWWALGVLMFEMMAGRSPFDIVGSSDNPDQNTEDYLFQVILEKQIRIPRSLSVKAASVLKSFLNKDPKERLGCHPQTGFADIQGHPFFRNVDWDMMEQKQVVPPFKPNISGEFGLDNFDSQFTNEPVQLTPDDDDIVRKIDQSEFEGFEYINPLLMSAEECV
UniProt Q8NAV1: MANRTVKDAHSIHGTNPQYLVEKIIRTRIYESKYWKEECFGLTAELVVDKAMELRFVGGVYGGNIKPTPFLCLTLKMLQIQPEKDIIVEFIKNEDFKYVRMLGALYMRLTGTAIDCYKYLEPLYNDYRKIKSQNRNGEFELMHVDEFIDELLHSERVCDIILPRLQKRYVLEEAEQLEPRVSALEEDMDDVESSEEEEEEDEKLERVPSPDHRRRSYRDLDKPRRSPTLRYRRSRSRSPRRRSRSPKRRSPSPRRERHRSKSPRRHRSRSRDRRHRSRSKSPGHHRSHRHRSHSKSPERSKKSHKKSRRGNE

Legend:
Experiment in all cases: log2 fold change, soluble protein after heating vs DMSO (PISA); higher = thermal stabilisation; K562 lysate, 10 uM; active = over 0.2 and 3.5 SD of the protein, either way, in both replicates (recomputed)
alvocidib = compound: CN1CC[C@H](c2c(O)cc(O)c3c(=O)cc(-c4ccccc4Cl)oc23)[C@H](O)C1 [alvocidib]
Outline: (§1)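 Following dounce homogenisation of K562 pellets in PBS pH 7.4 with 1 mM MgCl2, crude extract at 1 mg/mL protein was incubated for 30 min with 10 μM compound. Aliquots were then heated for 3 min over 48°C-58°C and pooled, NP-40 was added to 0.5% at 4°C, and soluble protein was recovered as the supernatant at 21,000xg for 90 min. Channel-sum-equalised TMTpro 16plex LC-MS/MS quantified this protein. Each value, from duplicates, is a log-two fold change in thermal stability relative to solvent controls.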

Tubastatin A = compound: CN1CCc2c(c3ccccc3n2Cc2ccc(C(=O)NO)cc2)C1 [Tubastatin A]
Outline: as §1

[1] = compound: CNC(=O)C1=CC=CC=C1NC2=NC(=NC=C2Cl)NC3=C(C=C(C=C3)N4CCOCC4)OC
Outline: as §1

defactinib = compound: CNC(=O)c1ccc(Nc2ncc(C(F)(F)F)c(NCc3nccnc3N(C)S(C)(=O)=O)n2)cc1 [defactinib]
Outline: as §1

[2] = compound: CNc1nc(-c2ccc3c(N)n[nH]c3c2)cc(N2C[C@@H](C(=O)NC3CCCCC3)CC[C@H]2C)n1
Outline: as §1

encorafenib = compound: COC(=O)N[C@@H](C)CNc1nccc(-c2cn(C(C)C)nc2-c2cc(Cl)cc(NS(C)(=O)=O)c2F)n1 [encorafenib]
Outline: as §1

[3] = compound: COC(=O)[C@H](CCSC)NC(=O)C1=C(C=C(C=C1)NC[C@H](CS)N)C2=CC=CC=C2
Outline: as §1

alisertib = compound: COc1cc(Nc2ncc3c(n2)-c2ccc(Cl)cc2C(c2c(F)cccc2OC)=NC3)ccc1C(=O)O [alisertib]
Outline: as §1

[4] = compound: COc1cc2nc(-c3cc(F)ccc3O)nc(N[C@@H]3CNC[C@H]3C(C)(C)O)c2cc1OC
Outline: as §1

gefitinib = compound: COc1cc2ncnc(Nc3ccc(F)c(Cl)c3)c2cc1OCCCN1CCOCC1 [gefitinib]
Outline: as §1

lapatinib = compound: CS(=O)(=O)CCNCc1ccc(-c2ccc3ncnc(Nc4ccc(OCc5cccc(F)c5)c(Cl)c4)c3c2)o1 [lapatinib]
Outline: as §1

pictilisib = compound: CS(=O)(=O)N1CCN(Cc2cc3nc(-c4cccc5[nH]ncc45)nc(N4CCOCC4)c3s2)CC1 [pictilisib]
Outline: as §1

crizotinib = compound: C[C@@H](Oc1cc(-c2cnn(C3CCNCC3)c2)cnc1N)c1c(Cl)ccc(F)c1Cl [crizotinib]
Outline: as §1

[5] = compound: C[C@H](C1=CC=C(C=C1)C(=O)NC2=C3C=CNC3=NC=C2)N
Outline: as §1

duvelisib = compound: C[C@H](Nc1ncnc2nc[nH]c12)c1cc2cccc(Cl)c2c(=O)n1-c1ccccc1 [duvelisib]
Outline: as §1

gandotinib = compound: Cc1cc(Nc2cc(CN3CCOCC3)c3nc(C)c(Cc4ccc(Cl)cc4F)n3n2)n[nH]1 [gandotinib]
Outline: as §1

tozasertib = compound: Cc1cc(Nc2cc(N3CCN(C)CC3)nc(Sc3ccc(NC(=O)C4CC4)cc3)n2)n[nH]1 [tozasertib]
Outline: as §1

doramapimod = compound: Cc1ccc(-n2nc(C(C)(C)C)cc2NC(=O)Nc2ccc(OCCN3CCOCC3)c3ccccc23)cc1 [doramapimod]
Outline: as §1

bafetinib = compound: Cc1ccc(NC(=O)c2ccc(CN3CC[C@H](N(C)C)C3)c(C(F)(F)F)c2)cc1Nc1nccc(-c2cncnc2)n1 [bafetinib]
Outline: as §1

[6] = compound: Cc1cccc(CC(=O)N2CCc3c2ccc(-c2cn(C)c4ncnc(N)c24)c3F)n1
Outline: as §1

Measured: log2 fold change

PPP4R3B (UniProt Q5MIZ7)
inactive: alvocidib -0.03 | Tubastatin A -0.072 | [1] 0 | defactinib -0.001 | [2] 0 | encorafenib -0.001 | [3] 0.078 | alisertib -0.013 | [4] 0.001 | gefitinib 0.006 | lapatinib -0.016 | pictilisib -0.019 | crizotinib -0.062 | [5] -0.023 | duvelisib -0.015 | gandotinib 0.016 | tozasertib -0.06 | doramapimod -0.019 | bafetinib 0.008 | [6] 0.072

PPP1R21 (UniProt Q6ZMI0)
inactive: alvocidib -0.012 | Tubastatin A 0.07 | [1] 0.021 | defactinib 0.008 | [2] -0.037 | encorafenib 0.002 | [3] 0.159 | alisertib 0.05 | [4] -0.001 | gefitinib -0.004 | lapatinib -0.012 | pictilisib -0.037 | crizotinib -0.029 | [5] 0.028 | duvelisib 0.017 | gandotinib -0.074 | tozasertib -0.081 | doramapimod 0.054 | bafetinib -0.091 | [6] 0.061

PPM1G (UniProt O15355)
inactive: alvocidib 0.029 | Tubastatin A -0.013 | [1] -0.005 | defactinib 0.035 | [2] -0.043 | encorafenib 0.017 | [3] 0.043 | alisertib 0.008 | [4] -0.004 | gefitinib 0.012 | lapatinib -0.003 | pictilisib 0.036 | crizotinib 0.043 | [5] 0.066 | duvelisib 0.006 | gandotinib -0.057 | tozasertib 0.021 | doramapimod -0.015 | bafetinib 0.024 | [6] -0.021

PPP1R14A (UniProt Q96A00)
inactive: alvocidib -0.016 | Tubastatin A 0.054 | [1] -0.026 | defactinib -0.003 | [2] 0.089 | encorafenib 0.002 | [3] 0.002 | alisertib 0.028 | [4] 0.052 | gefitinib -0.026 | lapatinib -0.016 | pictilisib -0.008 | crizotinib 0.015 | [5] -0.078 | duvelisib -0.005 | gandotinib 0.069 | tozasertib 0.021 | doramapimod 0.013 | bafetinib -0.018 | [6] 0.03

PRPF19 (UniProt Q9UMS4)
inactive: alvocidib 0.006 | Tubastatin A -0.018 | [1] 0.024 | defactinib 0.022 | [2] -0.047 | encorafenib 0.019 | [3] -0.208 | alisertib 0.016 | [4] -0.009 | gefitinib -0.036 | lapatinib -0.022 | pictilisib 0.007 | crizotinib 0.011 | [5] -0.001 | duvelisib 0.002 | gandotinib 0 | tozasertib 0.032 | doramapimod 0.013 | bafetinib 0.011 | [6] -0.04

PPT2 isoform 3 (UniProt Q9UMR5)
inactive: alvocidib -0.051 | Tubastatin A 0.014 | [1] -0.005 | defactinib -0.067 | [2] 0 | encorafenib -0.014 | [3] 0.059 | alisertib 0.013 | [4] 0.015 | gefitinib 0.031 | lapatinib -0.053 | pictilisib -0.032 | crizotinib 0.035 | [5] 0.058 | duvelisib 0.06 | gandotinib 0.016 | tozasertib 0.004 | doramapimod 0 | bafetinib 0.005 | [6] -0.05

PRDX6 (UniProt P30041)
inactive: alvocidib 0.012 | Tubastatin A 0.037 | [1] 0.01 | defactinib -0.014 | [2] 0.031 | encorafenib -0.014 | [3] -0.063 | alisertib 0.009 | [4] 0.004 | gefitinib -0.035 | lapatinib -0.018 | pictilisib 0 | crizotinib 0.012 | [5] 0.044 | duvelisib 0.013 | gandotinib -0.025 | tozasertib 0.019 | doramapimod -0.017 | bafetinib 0.027 | [6] -0.038

PPP1CC isoform 2 (UniProt P36873)
inactive: alvocidib -0.021 | Tubastatin A -0.015 | [1] 0.023 | defactinib -0.049 | [2] 0.042 | encorafenib -0.007 | [3] 0.014 | alisertib 0.038 | [4] -0.008 | gefitinib -0.016 | lapatinib 0.005 | pictilisib -0.007 | crizotinib 0.017 | [5] 0.079 | duvelisib -0.01 | gandotinib -0.072 | tozasertib -0.003 | doramapimod 0.028 | bafetinib 0.061 | [6] 0.002

Pulled one by one from the list above (two):
PRDX6 (UniProt P30041)
inactive: alvocidib 0.012 | Tubastatin A 0.037 | [1] 0.01 | defactinib -0.014 | [2] 0.031 | encorafenib -0.014 | [3] -0.063 | alisertib 0.009 | [4] 0.004 | gefitinib -0.035 | lapatinib -0.018 | pictilisib 0 | crizotinib 0.012 | [5] 0.044 | duvelisib 0.013 | gandotinib -0.025 | tozasertib 0.019 | doramapimod -0.017 | bafetinib 0.027 | [6] -0.038

PPP1CC isoform 2 (UniProt P36873)
inactive: alvocidib -0.021 | Tubastatin A -0.015 | [1] 0.023 | defactinib -0.049 | [2] 0.042 | encorafenib -0.007 | [3] 0.014 | alisertib 0.038 | [4] -0.008 | gefitinib -0.016 | lapatinib 0.005 | pictilisib -0.007 | crizotinib 0.017 | [5] 0.079 | duvelisib -0.01 | gandotinib -0.072 | tozasertib -0.003 | doramapimod 0.028 | bafetinib 0.061 | [6] 0.002

(cont.)

PPP1R12A (UniProt O14974)
inactive: alvocidib 0.008 | Tubastatin A -0.046 | [1] 0.01 | defactinib 0.012 | [2] 0.008 | encorafenib 0.008 | [3] -0.023 | alisertib 0.019 | [4] -0.014 | gefitinib -0.006 | lapatinib 0.002 | pictilisib 0.007 | crizotinib -0.014 | [5] -0.038 | duvelisib 0.001 | gandotinib 0.009 | tozasertib 0.002 | doramapimod 0.012 | bafetinib -0.038 | [6] 0.037

PPP2R2A isoform 2 (UniProt P63151)
inactive: alvocidib -0.021 | Tubastatin A 0.067 | [1] 0 | defactinib -0.049 | [2] -0.017 | encorafenib -0.005 | [3] -0.037 | alisertib 0.012 | [4] 0.028 | gefitinib -0.002 | lapatinib -0.034 | pictilisib -0.003 | crizotinib 0.019 | [5] -0.06 | duvelisib 0.003 | gandotinib 0.034 | tozasertib -0.009 | doramapimod 0.004 | bafetinib -0.014 | [6] 0.03

PRKCSH (UniProt K7ELL7)
inactive: alvocidib 0.048 | Tubastatin A 0.073 | [1] -0.026 | defactinib 0.006 | [2] -0.013 | encorafenib 0.048 | [3] -0.002 | alisertib 0.018 | [4] 0.083 | gefitinib -0.12 | lapatinib -0.009 | pictilisib 0.028 | crizotinib 0.061 | [5] 0.181 | duvelisib 0.1 | gandotinib -0.047 | tozasertib 0.062 | doramapimod -0.044 | bafetinib 0.031 | [6] -0.019

PPP4R2 (UniProt Q9NY27)
inactive: alvocidib 0.021 | Tubastatin A 0.013 | [1] 0.018 | defactinib 0.015 | [2] 0.014 | encorafenib 0.025 | [3] -0.014 | alisertib -0.058 | [4] -0.002 | gefitinib -0.01 | lapatinib 0.057 | pictilisib -0.003 | crizotinib 0.023 | [5] 0.159 | duvelisib 0.003 | gandotinib -0.011 | tozasertib -0.007 | doramapimod -0.022 | bafetinib 0.021 | [6] -0.048

PRKCI (UniProt P41743)
inactive: alvocidib 0.008 | Tubastatin A -0.029 | [1] 0.017 | defactinib -0.058 | [2] 0.002 | encorafenib 0.018 | [3] 0.015 | alisertib 0.005 | [4] 0.005 | gefitinib 0.041 | lapatinib -0.015 | pictilisib -0.013 | crizotinib -0.002 | [5] 0.016 | duvelisib -0.005 | gandotinib 0.017 | tozasertib -0.042 | doramapimod 0.021 | bafetinib -0.006 | [6] -0.035

PPIL3 (UniProt Q9H2H8)
inactive: alvocidib -0.105 | Tubastatin A -0.044 | [1] 0 | defactinib -0.115 | [2] 0.012 | encorafenib 0.011 | [3] 0.008 | alisertib -0.033 | [4] 0.018 | gefitinib -0.02 | lapatinib 0.05 | pictilisib -0.062 | crizotinib 0.079 | [5] -0.115 | duvelisib -0.009 | gandotinib 0.084 | tozasertib -0.019 | doramapimod 0 | bafetinib -0.037 | [6] 0.08

PRPF38A (UniProt Q8NAV1)
inactive: alvocidib -0.178 | Tubastatin A -0.068 | [1] -0.147 | defactinib 0.013 | [2] -0.004 | encorafenib 0.115 | [3] -0.009 | alisertib -0.044 | [4] 0.013 | gefitinib -0.017 | lapatinib -0.001 | pictilisib 0.039 | crizotinib -0.248 | duvelisib 0.03 | gandotinib 0.024 | tozasertib -0.034 | doramapimod 0.012 | bafetinib -0.055 | [6] 0.121
active: [5] -0.399

PRKAA1 isoform 2 (UniProt Q13131)
inactive: alvocidib 0.134 | Tubastatin A -0.066 | [1] 0.186 | defactinib 0.166 | [2] -0.107 | encorafenib -0.035 | [3] -0.086 | alisertib 0.022 | [4] 0.089 | gefitinib -0.041 | lapatinib -0.037 | pictilisib 0.088 | crizotinib -0.019 | [5] 0 | duvelisib -0.004 | gandotinib 0.163 | tozasertib 0.165 | doramapimod -0.01 | bafetinib -0.036 | [6] -0.041
